Data from patent US20180002412A1 (UNIVERSITY OF CONNECTICUT, published 2018).
These are yes or no findings as the source states them, for the method shown. Some results given as binding are weak or reduced against the parent protein; the word gives no strength.

Sequences of proteins named here, by UniProt entry; tags and fusion partners are left off. Residues count along the entry.
UniProt P08238, residues 2-724: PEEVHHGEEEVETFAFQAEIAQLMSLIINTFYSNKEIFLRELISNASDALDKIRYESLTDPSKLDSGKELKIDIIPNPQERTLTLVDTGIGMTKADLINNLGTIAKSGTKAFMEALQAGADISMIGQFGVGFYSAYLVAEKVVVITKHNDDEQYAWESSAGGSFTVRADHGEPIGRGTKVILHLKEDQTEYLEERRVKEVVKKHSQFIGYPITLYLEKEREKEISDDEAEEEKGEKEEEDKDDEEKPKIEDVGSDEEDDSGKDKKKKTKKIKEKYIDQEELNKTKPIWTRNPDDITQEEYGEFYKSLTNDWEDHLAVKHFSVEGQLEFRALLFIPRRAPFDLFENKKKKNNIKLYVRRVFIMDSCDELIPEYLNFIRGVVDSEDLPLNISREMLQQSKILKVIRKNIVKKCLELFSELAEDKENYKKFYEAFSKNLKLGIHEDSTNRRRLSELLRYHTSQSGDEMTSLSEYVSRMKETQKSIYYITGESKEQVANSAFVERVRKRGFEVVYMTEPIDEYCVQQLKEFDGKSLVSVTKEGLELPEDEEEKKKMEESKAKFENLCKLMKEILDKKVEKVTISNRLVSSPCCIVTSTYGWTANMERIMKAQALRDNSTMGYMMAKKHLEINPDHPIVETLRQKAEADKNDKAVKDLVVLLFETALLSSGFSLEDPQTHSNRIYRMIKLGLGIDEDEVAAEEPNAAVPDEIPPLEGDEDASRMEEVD

Key:
[1] = target: HSP90 (endogenous, from MDA-MB-231 cells and MDA-MB-231 xenograft tumor lysates) (human) (UniProt P08238); test: immunoprecipitation from MDA-MB-231 xenograft tumor lysates, immunoblot with commercial HSP90 antibody
[2] = target: HSP90 (endogenous, from MDA-MB-231 cells and MDA-MB-231 xenograft tumor lysates) (human) (UniProt P08238); test: immunoprecipitation from cytosolic and plasma membrane fractions, immunoblot (FIG. 4A legend)
[3] = target: HSP90 (endogenous, from MDA-MB-231 cells and MDA-MB-231 xenograft tumor lysates) (human) (UniProt P08238); test: immunoprecipitation from cytosolic and plasma membrane fractions of MDA-MB-231 cells, immunoblot with commercial HSP90 antibody
[4] = target: HSP90 (endogenous, from MDA-MB-231 cells and MDA-MB-231 xenograft tumor lysates) (human) (UniProt P08238); test: immunoprecipitation from MDA-MB-231 1% Triton X-100 + 0.1% SDS lysate, gel band identified by LC-MS/MS
[5] = target: HSP90 (endogenous, from MDA-MB-231 cells and MDA-MB-231 xenograft tumor lysates) (human) (UniProt P08238); test: immunoprecipitation from xenograft tumor lysates with 15 µg HCAb, immunoblot (FIG. 11 legend)

binding [1]: binds
binding [2]: binds
binding [3]: binds
binding [4]: binds
binding [5]: binds
B1: HCAb2 (Fc fusion, not shown: a dimerising Fc or GST)
heavy: QVQLVQSGAEVKKPGASVRVSCKIFGYRLSELSIHWVRQAPGKGLEWMGWISGWDGNTTYTQNLQGRVTMTTDTSTNSAYMELRSLRSDDTAVYYCARASGYNYSYRPLDFWGRGTLVTVSS
